PMC10687119, “Quaternary Ammonium Salts of Cationic Lipopeptides with Lysine Residues — Synthesis, Antimicrobial, Hemolytic and Cytotoxic Activities” (Probiotics and Antimicrobial Proteins, 2023)
Read-outs that look alike come from different tables or passages of the source. Where a SMILES comes first, the peptide text is derived from it. [ ]: non-standard residue; d: D form. The star is where a group is joined. Lys(Me3) = C[N+](C)(C)CCCC[C@H](N)C(=O)O; Stearoyl = CCCCCCCCCCCCCCCCCC(=O)*; Palmitoyl = CCCCCCCCCCCCCCCC(=O)*; Myristoyl = CCCCCCCCCCCCCC(=O)*

What was measured:
E. faecium ATCC 700221 = type: cell-based, Enterococcus faecium; conditions: SI of qUSCL divided by SI of parent USCL
Description: (§1) The Acinetobacter baumannii ATCC BAA-1605, Enterococcus faecium ATCC 700221, Klebsiella aerogenes ATCC 13048, Klebsiella pneumoniae ATCC 700603, Pseudomonas aeruginosa ATCC 9027, Staphylococcus aureus ATCC 33591, Candida glabrata ATCC 15126 strains were acquired from the American Type Culture Collection (ATCC, Manassas, USA). All the strains were stored at −80 °C in Roti-Store cryo vials (Carl Roth GmbH, Germany) and before the tests were transferred into fresh Mueller–Hinton broth (MHB, Becton Dickinson, Poland) for bacteria or RPMI-1640 (Sigma-Aldrich, Germany) for fungi and incubated for 24 h at 37 °C. Then, the cultures were cultured on the Mueller–Hinton agar (BioMaxima, Poland) or Sabouraud dextrose agar (SDA, BioMaxima) plates, respectively, and incubated as just mentioned. For microbiological assays, a minimum of three to five well-isolated colonies of the same morphological type were carefully picked from the agar cultures. These colonies were transferred with sterile loop into fresh microbiological medium and incubated with shaking (100 rpm) at 37 °C until they reached logarithmic phase of growth. Cell densities for all assays were adjusted through spectrophotometric measurements (Multiskan GO Microplate Spectrophotometer, Thermo Fisher Scientific, Finland) at 600 and 530 nm for bacteria and fungi, respectively.
(§2) The MICs were determined by broth microdilution method according to the Clinical and Laboratory Standard Institute guidelines. For this purpose, initial inoculums of bacteria (5 × 10^5 CFU/mL) in MHB and yeasts (2 × 10^3 CFU/mL) in RPMI-1640 with 2% D-glucose were exposed to the ranging concentration of lipopeptides (1–512 μg/mL) and incubated at 37 °C for 18 h and 24 h, respectively. The experiments were conducted on 96-well microtiter polystyrene plates (Kartell, Italy). The growth was assessed visually after incubation and the MIC was assumed as the lowest peptide concentration at which a noticeable growth of microorganisms was inhibited. Benzalkonium chloride (Sigma-Aldrich, Germany) was used as reference compound. All experiments were conducted in triplicate.

S. aureus ATCC 33591 = type: cell-based, Staphylococcus aureus; conditions: SI of qUSCL divided by SI of parent USCL
Description: as §1, §2

[1] = system: K. pneumoniae ATCC 700603; type: cell-based, Klebsiella pneumoniae; conditions: for quotient SIqUSCLs/SIUSCLs in terms of HC50, K. pneumoniae: SI of qUSCL divided by SI of parent USCL
Description: as §1, §2

[2] = system: A. baumannii ATCC BAA 1605; type: cell-based, Acinetobacter baumannii; conditions: SI of qUSCL divided by SI of parent USCL
Description: as §1, §2

P. aeruginosa ATCC 9027 = type: cell-based, Pseudomonas aeruginosa; conditions: SI of qUSCL divided by SI of parent USCL
Description: as §1, §2

K. aerogenes ATCC 13048 = type: cell-based, Klebsiella aerogenes; conditions: for quotient SIqUSCLs/SIUSCLs in terms of HC50, K. aerogenes: SI of qUSCL divided by SI of parent USCL
Description: as §1, §2

C. glabrata ATCC 15126 = type: cell-based, Candida glabrata; conditions: SI of qUSCL divided by SI of parent USCL
Description: as §1, §2

Structure (SMILES) | quotient SIqUSCLs/SIUSCLs in terms of HC50, A. baumannii [2] | quotient SIqUSCLs/SIUSCLs in terms of HC50, P. aeruginosa (P. aeruginosa ATCC 9027) | quotient SIqUSCLs/SIUSCLs in terms of HC50, K. aerogenes (K. aerogenes ATCC 13048) | Selectivity index (SI) K. pneumoniae ([1]; HC50/MIC) | also measured
CCCCCCCCCCCCCCCC(=O)N[C@@H](CCCC[N+](C)(C)C)C(=O)N[C@@H](CCCC[N+](C)(C)C)C(N)=O [Peptide 2Pq, C16-K(Me3)^+K(Me3)^+-NH2] | 1.2 | 0.1 | 0.2 |  | quotient SIqUSCLs/SIUSCLs in terms of HC50, E. faecium (E. faecium ATCC 700221): 1.2; quotient SIqUSCLs/SIUSCLs in terms of HC50, S. aureus (S. aureus ATCC 33591): 0.6; quotient SIqUSCLs/SIUSCLs in terms of HC50, K. pneumoniae [1]: 0.6; quotient SIqUSCLs/SIUSCLs in terms of HC50, C. glabrata (C. glabrata ATCC 15126): 0.6
CCCCCCCCCCCCCC(=O)N[C@@H](CCCCN)C(=O)N[C@@H](CCCCN)C(=O)N[C@@H](CCCCN)C(N)=O [Peptide 3M, C14-KKK-NH2] |  |  |  | - | Selectivity index (SI) K. pneumoniae ([1]; IC50 (HaCaT)/MIC): - (due to lack of antimicrobial activity of compound for specific strain with MIC >512 µg/mL, SI tends to zero)
CCCCCCCCCCCCCC(=O)N[C@@H](CCCC[N+](C)(C)C)C(=O)N[C@@H](CCCC[N+](C)(C)C)C(=O)N[C@@H](CCCC[N+](C)(C)C)C(N)=O [Peptide 3Mq, C14-K(Me3)^+K(Me3)^+K(Me3)^+-NH2] |  |  |  | - | 
CCCCCCCCCCCCCCCCCC(=O)N[C@@H](CCCC[N+](C)(C)C)C(=O)N[C@@H](CCCC[N+](C)(C)C)C(=O)N[C@@H](CCCC[N+](C)(C)C)C(N)=O [Peptide 3Sq, C18-K(Me3)^+K(Me3)^+K(Me3)^+-NH2] | 3.0 | 0.4 | 0.7 |  | quotient SIqUSCLs/SIUSCLs in terms of HC50, E. faecium (E. faecium ATCC 700221): 3.0; quotient SIqUSCLs/SIUSCLs in terms of HC50, S. aureus (S. aureus ATCC 33591): 0.7; quotient SIqUSCLs/SIUSCLs in terms of HC50, K. pneumoniae [1]: 0.4; quotient SIqUSCLs/SIUSCLs in terms of HC50, C. glabrata (C. glabrata ATCC 15126): 0.8
CCCCCCCCCCCCCC(=O)N[C@@H](CCCCN)C(=O)N[C@@H](CCCCN)C(=O)N[C@@H](CCCCN)C(=O)N[C@@H](CCCCN)C(N)=O [Peptide 4M, C14-KKKK-NH2] (Myristoyl-KKKK-NH2) |  |  |  | - | Selectivity index (SI) K. pneumoniae ([1]; IC50 (HaCaT)/MIC): - (due to lack of antimicrobial activity of compound for specific strain with MIC >512 µg/mL, SI tends to zero)
CCCCCCCCCCCCCC(=O)N[C@@H](CCCC[N+](C)(C)C)C(=O)N[C@@H](CCCC[N+](C)(C)C)C(=O)N[C@@H](CCCC[N+](C)(C)C)C(=O)N[C@@H](CCCC[N+](C)(C)C)C(N)=O [Peptide 4Mq, C14-K(Me3)^+K(Me3)^+K(Me3)^+K(Me3)^+-NH2] (Myristoyl-[Lys(Me3)][Lys(Me3)][Lys(Me3)][Lys(Me3)]-NH2) |  |  |  | - | 
CCCCCCCCCCCCCCCC(=O)N[C@@H](CCCC[N+](C)(C)C)C(=O)N[C@@H](CCCC[N+](C)(C)C)C(=O)N[C@@H](CCCC[N+](C)(C)C)C(=O)N[C@@H](CCCC[N+](C)(C)C)C(N)=O [Peptide 4Pq, C16-K(Me3)^+K(Me3)^+K(Me3)^+K(Me3)^+-NH2] (Palmitoyl-[Lys(Me3)][Lys(Me3)][Lys(Me3)][Lys(Me3)]-NH2) |  |  |  | - | Selectivity index (SI) K. aerogenes (K. aerogenes ATCC 13048; IC50 (HaCaT)/MIC): - (due to lack of antimicrobial activity of compound for specific strain with MIC >512 µg/mL, SI tends to zero)
CCCCCCCCCCCCCCCCCC(=O)N[C@@H](CCCC[N+](C)(C)C)C(=O)N[C@@H](CCCC[N+](C)(C)C)C(=O)N[C@@H](CCCC[N+](C)(C)C)C(=O)N[C@@H](CCCC[N+](C)(C)C)C(N)=O [Peptide 4Sq, C18-K(Me3)^+K(Me3)^+K(Me3)^+K(Me3)^+-NH2] (Stearoyl-[Lys(Me3)][Lys(Me3)][Lys(Me3)][Lys(Me3)]-NH2) | 0.7 | 0.2 | 0.7 |  | 
